Measurements published in PubChem BioAssay AID2551 (National Center for Advancing Translational Sciences (NCATS), 2010).
Among all 310,000 compounds or so, about 17,000 (5.5%) were called active. The inconclusive results got no clear call from the source; some entries with a clear call stand among them for comparison. Calls follow the shape of the dose curve; as a rule, active = well fitted inhibition curve with a large enough effect; inconclusive = small, poorly fitted or top-dose-only effect, or effect the other way; inactive = no such curve, though single readings can be large or run the other way. Potencies of inconclusive entries are doubtful fits and often do not repeat.

Amino acid sequences for entries named in this document (tags omitted). A change or cut given only in a name is not applied to a line headed by its entry.
UniProt P51450: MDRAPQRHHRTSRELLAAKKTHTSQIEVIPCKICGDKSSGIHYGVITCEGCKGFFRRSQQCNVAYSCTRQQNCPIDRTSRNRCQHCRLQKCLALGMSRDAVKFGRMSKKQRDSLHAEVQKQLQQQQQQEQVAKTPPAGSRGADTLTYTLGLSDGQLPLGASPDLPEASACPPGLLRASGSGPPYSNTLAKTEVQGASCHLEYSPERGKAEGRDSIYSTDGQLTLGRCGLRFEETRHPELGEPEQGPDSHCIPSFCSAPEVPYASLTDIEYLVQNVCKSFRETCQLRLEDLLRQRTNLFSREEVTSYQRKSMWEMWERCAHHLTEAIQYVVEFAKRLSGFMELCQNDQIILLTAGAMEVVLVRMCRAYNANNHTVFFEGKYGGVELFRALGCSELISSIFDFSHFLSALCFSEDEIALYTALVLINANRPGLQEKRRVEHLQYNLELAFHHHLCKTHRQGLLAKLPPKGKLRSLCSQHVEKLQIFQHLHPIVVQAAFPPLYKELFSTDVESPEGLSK

biological target: Nuclear receptor ROR-gamma (Mus musculus) (UniProt P51450); experiment: qHTS for inhibitors of ROR gamma transcriptional activity; settings: Drosophila S2 Gal4-RORgamma UAS-luciferase reporter, 20 h; activity change, negative = inhibition: at 53.6 µM (top of the series); also: nearly all actives have a fitted effect of over 60% in size
Summary of the method: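 Read-out: Photinus luciferase luminescence; inhibitors lower reporter signal. Insect Schneider cells with Gal4-ROR gamma fusion under metallothionein promoter, UAS reporter; 700 uM final copper sulfate induction, 20 hr, ambient temperature.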
% is scaled to controls: 0 for no effect and ±100 for the full control effect; potency is read from the fitted curve at half-maximal effect.

Row | Compound | Potency | activity change, negative = inhibition
1 | CCOc1cc(CNCc2ccncc2)cc(Br)c1OCc1ccc(F)cc1 | inconclusive: 35.5 µM [activator, single point] | –
2 | CCN(CC)C(=O)CSc1nnnn1-c1ccc(F)c(Cl)c1 | inconclusive: 2.51 µM [activator, single point] | –
3 | O=c1c(-c2ccccc2)nc2cnc(Oc3cccc(Cl)c3)nc2n1C[C@H]1CCCO1 | – | inactive: 43.3%
4 | O=C1c2ccccc2C(=O)C1(CO)c1ccc(OC(F)F)cc1 | inconclusive: 20 µM [inhibitor, single point] | –
5 | CCN(CC)S(=O)(=O)c1ccc(C(=O)Nc2nnc(COC)o2)cc1 | active: 3.55 µM | –
6 | CCOc1ccc(OCCn2c(=S)[nH]c3ccccc32)cc1 | active: 5.01 µM | –
7 | O=C(c1ccccc1)N1CCN(c2nc3ccc([N+](=O)[O-])cc3s2)CC1 | inconclusive: 3.55 µM [activator, single point] | –
8 | O=C(O)c1cccc(NC(=S)N/N=C/c2ccccc2OCc2cccc(Br)c2)c1 | active: 11.2 µM | –
9 | CCOC(=O)C1=C(c2ccccc2)NC(=O)NC1c1ccc(OCC#N)c(OC)c1 (stereo unspecified) | inconclusive: 35.5 µM [inhibitor, single point] | –
10 | Cn1/c(=N/N=C/c2ccc(N3CCOCC3)cc2)sc2ccccc21 | inconclusive: 25.1 µM [inhibitor, single point] | –
11 | COc1cccc(Nc2ncc3ncc(=O)n(Cc4cccs4)c3n2)c1 | inconclusive: 5.01 µM [activator, single point] | –
12 | CCOc1ccc(-c2c(C(=O)N/N=C/c3ccc(OC)cc3)nnn2-c2nonc2N)cc1 | inconclusive: 35.5 µM [inhibitor, single point] | –
13 | Cn1c(CCNC(=O)c2ccco2)nc2cc(NC(=O)C3CCCCC3)ccc21 | inconclusive: 0.158 µM [activator, single point] | –
14 | O=C(Nc1ccc2c3c(cccc13)CC2)c1ccco1 | inconclusive: 11.2 µM [activator, partial curve] | –
15 | Cc1ccc(C2CCN(C(=S)NC3CCCCC3)C2)cc1 (stereo unspecified) | inconclusive: 22.4 µM [inhibitor, single point] | –
16 | CC(C)n1c(NCCc2ccccc2)nc2c1c(=O)n(C)c(=O)n2C | inconclusive: 3.16 µM [activator, partial curve] | –
17 | CC(=O)Nc1cccc(C(=O)/C=C/c2ccco2)c1 | inconclusive: 15.8 µM [inhibitor, single point] | –
18 | CCOc1cccc(C(=O)Nc2cccc(NC(=O)c3ccco3)c2)c1 | inconclusive: 11.2 µM [activator, single point] | –
19 | O=C(O)CC/C(=C\c1ccc(Cl)c([N+](=O)[O-])c1)c1nc2ccccc2s1 | inconclusive: 35.5 µM [activator, single point] | –
20 | Cc1ccc(NS(=O)(=O)c2ccc(-c3coc(C)n3)cc2)c(Br)c1 | inconclusive: 20 µM [activator, single point] | –
21 | O=c1cc(-c2ccc(O)c(O)c2)oc2cccc(O)c12 | active: 14.1 µM | –
22 | O=C(COC(=O)c1cc([N+](=O)[O-])ccc1N1CCOCC1)Nc1ccc(Cl)cn1 | inconclusive: 3.16 µM [activator, full curve, poor fit] | –
23 | O=C(N/N=C(\Cc1ncc[nH]1)c1ccccc1)c1ccccc1 | active: 11.2 µM | –
24 | CCc1ccccc1NC(=O)CCCSc1nc2ccccc2s1 | inconclusive: 14.1 µM [inhibitor, single point] | –
25 | O=C(NCCNC[C@@H](O)COc1ccc(O)cc1)N1CCOCC1 | inactive | –
26 | Cc1ccc(S(=O)(=O)Oc2ccc(/C=N/N=C3/NC(=O)C(CC(=O)O)S3)cc2)cc1 (stereo unspecified) | – | inactive: -18.5%

Row | Compound | Potency | activity change, negative = inhibition
27 | Cc1cccc(NC(=O)CC2C(=O)NCCN2C(=S)Nc2ccccc2)c1 (stereo unspecified) | inconclusive: 11.2 µM [activator, partial curve] | –
28 | COc1ccc(N(CC(=O)NCc2ccco2)S(C)(=O)=O)cc1Cl | – | inactive: -0.0538%
29 | O=C(O)c1cc(=O)c2ccccc2[nH]1 | inactive | –
30 | Cc1ccc(-c2noc(C3CCCN(C(=O)C4CCCCC4)C3)n2)o1 (stereo unspecified) | inconclusive: 12.6 µM [activator, single point] | –
31 | CC(C)(C)c1ccc(NC(=O)COc2ccc(-n3ccnc3)cc2)cc1 | active: 10 µM | –
32 | COc1ccccc1-c1cc(NCc2cccs2)ncn1 | inconclusive: 10 µM [activator, partial curve] | –
33 | CCc1oc2ccccc2c1C(=O)CCN1CCCCC1 | – | inactive: -14.6%
34 | Cn1c(N)c(C(=O)CSc2nc(N)cc(=O)[nH]2)c(=O)n(C)c1=O | inconclusive: 6.31 µM [inhibitor, single point] | –
35 | Cc1ccc(S(=O)(=O)N2CCN(C(=O)Cc3ccc4c(c3)OCCO4)CC2)cc1C | inconclusive: 35.5 µM [activator, single point] | –
36 | O=C(c1ccco1)N1CCN(C(c2cccs2)c2sc3ncnn3c2O)CC1 (stereo unspecified) | – | inactive: 2.39%
37 | CC1(C)CC2CC(C)(CN2C(=O)c2ccc([N+](=O)[O-])cc2)C1 (stereo unspecified) | – | inactive: 34.9%
38 | COCCN1Cc2cccc(C(=O)Nc3cccc(-c4nc5ccccc5[nH]4)c3)c2C1=O | – | inactive: -25.3%
39 | CCCCc1ccc(-c2ccc(Br)cc2)nc1 | – | inactive: -11.8%
40 | Cc1ccc(C(=O)NCC2CCCO2)cc1S(=O)(=O)N1CCCCC1 (stereo unspecified) | – | inactive: -0.634%
41 | Cc1ccccc1NC(=O)Nc1nnc(Cc2ccc([N+](=O)[O-])cc2)s1 | inconclusive: 17.8 µM [inhibitor, single point] | –
42 | CCOC(=O)/C=C/S(=O)(=O)c1ccc(NC(C)=O)cc1 | active: 3.55 µM | –
43 | CCC1CCCCN1S(=O)(=O)c1ccc(NC(=O)CSc2ncccc2C(=O)O)cc1 (stereo unspecified) | – | inactive: 0%
44 | CCc1ccc(C(=O)CN2C(=O)NC(C)(c3ccc(C)cc3)C2=O)cc1 (stereo unspecified) | – | inactive: 23.9%
45 | CCN(C(=O)COC(=O)c1cc(=O)[nH]c2ccccc12)C1CCS(=O)(=O)C1 (stereo unspecified) | – | inactive: 0%
46 | CC1(C)CC(=O)c2sc(NS(=O)(=O)c3ccc(Cl)cc3)nc2C1 | inconclusive: 12.6 µM [inhibitor, single point] | –
47 | Cc1ccc(CNC(=O)CCc2ccc(S(=O)(=O)NC3CCCCC3)cc2)cc1 | – | inactive: -9.18%
48 | O=C(OCC#CCSc1nc2ccccc2s1)c1ccco1 | inconclusive: 22.4 µM [inhibitor, single point] | –
49 | COCc1ccc(CN2CCC(n3nccc3NC(=O)CCCc3ccccc3)CC2)o1 | inconclusive: 20 µM [inhibitor, partial curve, poor fit] | –
50 | CC(C)c1ccc(N(C(=O)c2csnn2)C(C(=O)NC2CCCC2)c2cccnc2)cc1 (stereo unspecified) | – | inactive: -25.5%
51 | COc1ccccc1OC(=O)c1cc(Cl)nc2ccccc12 | – | inactive: 5.24%
52 | Oc1ccc(Br)cc1C=Nc1ccc2[nH]ncc2c1 | active: 11.2 µM | –

In a second layout: 3 of the compounds above

| Row | Compound | Potency | activity change, negative = inhibition |
| --- | --- | --- | --- |
| 44 | CCc1ccc(C(=O)CN2C(=O)NC(C)(c3ccc(C)cc3)C2=O)cc1 (stereo unspecified) | – | inactive: 23.9% |
| 45 | CCN(C(=O)COC(=O)c1cc(=O)[nH]c2ccccc12)C1CCS(=O)(=O)C1 (stereo unspecified) | – | inactive: 0% |
| 46 | CC1(C)CC(=O)c2sc(NS(=O)(=O)c3ccc(Cl)cc3)nc2C1 | inconclusive: 12.6 µM [inhibitor, single point] | – |

(further entries)

Row | Compound | Potency | activity change, negative = inhibition
53 | CCn1cc(C(=O)O)c(=O)c2cc(F)c(N3CCN(C(=S)NC(=O)c4cccc(F)c4)CC3)cc21 | active: 2.82 µM | –
54 | CCc1ccc(C(=O)Nc2cc3c(cc2Cl)OCCCO3)cc1 | inconclusive: 0.355 µM [activator, partial curve, poor fit] | –
55 | Cc1cc(C(=O)NCCCN(C)C)c2ccccc2n1 | – | inactive: -10.4%
56 | COc1cc(CO)cc(Br)c1OCC(=O)N1CCCCC1 | inconclusive: 1.41 µM [inhibitor, full curve, poor fit] | –
57 | Cc1cccc(OCC2CCCN(Cc3nc(C4CC4)no3)C2)c1 (stereo unspecified) | – | inactive: 22.2%
58 | Cc1ccc(-c2nnc(/C=C/c3ccccc3)o2)cc1 | inconclusive: 14.1 µM [inhibitor, single point] | –
59 | COc1ccc(/C=C2/SC(=S)NC2=O)cc1OCc1ccccc1 | inconclusive: 0.0063 µM [activator, full curve, poor fit] | –
60 | CC1CCN(C(=S)c2cn(Cc3cccc(F)c3)c3ccccc23)CC1 | active: 10 µM | –
61 | CCn1c(=O)cc(SCC(=O)NCCCN2CCN(c3ccccc3F)CC2)c2ccccc21 | – | inactive: 17%
62 | COc1cccc(Nc2nc(CN3CCOCC3)nc3sc4c(c23)CCCC4)c1 | active: 10 µM | –
63 | Cc1nc(Nc2ccc(F)cc2)nc(Nc2ccc(F)cc2)c1[N+](=O)[O-] | inconclusive: 11.2 µM [inhibitor, single point] | –
64 | Cc1ccc(N(CCO)C(=S)Nc2ccccc2)cc1 | – | inactive: -10.1%
65 | Cc1ccc(OCc2ccc(C(=O)O)o2)cc1C | inconclusive: 11.2 µM [inhibitor, single point] | –
66 | COc1cc(NC(=O)[C@@H](NC(=O)c2ccco2)C(C)C)c(OC)cc1NC(=O)c1ccccc1 | – | inactive: -24.8%
67 | COc1cc(C(=O)NCCSc2ccccc2)cc(OC)c1OC | – | inactive: -1.15%
68 | COc1ccc(-n2c(-c3cc(-c4ccccc4)sc3N)n[nH]c2=S)cc1 | active: 2.51 µM | –
69 | O=S(=O)(c1ccccc1)c1cnc(-c2cccnc2)nc1-c1ccc(Cl)cc1Cl | inconclusive: 17.8 µM [inhibitor, partial curve, poor fit] | –
70 | COc1ccccc1NC(=O)CSC(N)=O | – | inactive: -30.1%
71 | CCOc1ncccc1C(=O)OCC(=O)Nc1ccc(C)c(S(=O)(=O)N2CCOCC2)c1 | inconclusive: 6.31 µM [activator, full curve] | –
72 | Cc1oc(-c2ccccc2)cc1C(=O)Nc1cccc(/C=C/C(=O)O)c1 | inconclusive: 5.62 µM [activator, partial curve, poor fit] | –
73 | Cc1ccc(Cn2cccc2C2=NC(C)CO2)cc1 (stereo unspecified) | active: 17.8 µM | –
74 | CCOC(=O)c1ccc(NC(=O)c2cc(S(=O)(=O)N3CCOCC3)ccc2O)cc1 | inconclusive: 11.2 µM [activator, partial curve] | –
75 | Cc1nc(SCC(=O)Nc2cc(C)on2)c2c(C)c(C)sc2n1 | inconclusive: 25.1 µM [inhibitor, single point] | –
76 | CCOc1ncccc1C(=O)OCC(=O)Nc1ccc(-c2nc3ccc(C)cc3s2)cc1 | active: 0.398 µM | –
